Laboratory results reported in article PMC8707790.

The chains behind the UniProt entries cited, without tags or fusion partners. Where a name states a change or a piece, a line headed by the entry shows the natural chain unless it says otherwise.
UniProt O95292: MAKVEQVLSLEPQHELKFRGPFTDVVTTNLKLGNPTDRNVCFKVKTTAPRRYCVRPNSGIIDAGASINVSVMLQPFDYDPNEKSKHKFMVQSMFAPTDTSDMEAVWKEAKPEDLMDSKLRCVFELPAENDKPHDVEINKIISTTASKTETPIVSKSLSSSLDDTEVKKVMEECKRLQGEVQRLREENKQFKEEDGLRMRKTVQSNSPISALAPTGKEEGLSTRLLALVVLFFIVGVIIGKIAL

B1: endogenous ACBD5 (protein, UniProt Q5T8D3 1-534)
chain: MFQFHAGSWESWCCCCLIPADRPWDRGQHWQLEMADTRSVHETRFEAAVKVIQSLPKNGSFQPTNEMMLKFYSFYKQATEGPCKLSRPGFWDPIGRYKWDAWSSLGDMTKEEAMIAYVEEMKKIIETMPMTEKVEELLRVIGPFYEIVEDKKSGRSSDITSVRLEKISKCLEDLGNVLTSTPNAKTVNGKAESSDSGAESEEEEAQEEVKGAEQSDNDKKMMKKSADHKNLEVIVTNGYDKDGFVQDIQNDIHASSSLNGRSTEEVKPIDENLGQTGKSAVCIHQDINDDHVEDVTGIQHLTSDSDSEVYCDSMEQFGQEESLDSFTSNNGPFQYYLGGHSSQPMENSGFREDIQVPPGNGNIGNMQVVAVEGKGEVKHGGEDGRNNSGAPHREKRGGETDEFSNVRRGRGHRMQHLSEGTKGRQVGSGGDGERWGSDRGSRGSLNEQIALVLMRLQEDMQNVLQRLQKLETLTALQAKSSTSTLQTAPQPTSQRPSWWPFEMSPGVLTFAIIWPFIAQWLVYLYYQRRRRKLN
B2: endogenous OSBPL9 (protein, UniProt Q96SU4 1-736)
chain: MASIMEGPLSKWTNVMKGWQYRWFVLDYNAGLLSYYTSKDKMMRGSRRGCVRLRGAVIGIDDEDDSTFTITVDQKTFHFQARDADEREKWIHALEETILRHTLQLQGLDSGFVPSVQDFDKKLTEADAYLQILIEQLKLFDDKLQNCKEDEQRKKIETLKETTNSMVESIKHCIVLLQIAKDQSNAEKHADGMISTINPVDAIYQPSPLEPVISTMPSQTVLPPEPVQLCKSEQRPSSLPVGPVLATLGHHQTPTPNSTGSGHSPPSSSLTSPSHVNLSPNTVPEFSYSSSEDEFYDADEFHQSGSSPKRLIDSSGSASVLTHSSSGNSLKRPDTTESLNSSLSNGTSDADLFDSHDDRDDDAEAGSVEEHKSVIMHLLSQVRLGMDLTKVVLPTFILERRSLLEMYADFFAHPDLFVSISDQKDPKDRMVQVVKWYLSAFHAGRKGSVAKKPYNPILGEIFQCHWTLPNDTEENTELVSEGPVPWVSKNSVTFVAEQVSHHPPISAFYAECFNKKIQFNAHIWTKSKFLGMSIGVHNIGQGCVSCLDYDEHYILTFPNGYGRSILTVPWVELGGECNINCSKTGYSANIIFHTKPFYGGKKHRITAEIFSPNDKKSFCSIEGEWNGVMYAKYATGENTVFVDTKKLPIIKKKVRKLEDQNEYESRSLWKDVTFNLKIRDIDAATEAKHRLEERQRAEARERKEKEIQWETRLFHEDGECWVYDEPLLKRLGAAKH
B3: endogenous TMEM43 (protein, UniProt Q9BTV4 1-400)
chain: MAANYSSTSTRREHVKVKTSSQPGFLERLSETSGGMFVGLMAFLLSFYLIFTNEGRALKTATSLAEGLSLVVSPDSIHSVAPENEGRLVHIIGALRTSKLLSDPNYGVHLPAVKLRRHVEMYQWVETEESREYTEDGQVKKETRYSYNTEWRSEIINSKNFDREIGHKNPSAMAVESFMATAPFVQIGRFFLSSGLIDKVDNFKSLSLSKLEDPHVDIIRRGDFFYHSENPKYPEVGDLRVSFSYAGLSGDDPDLGPAHVVTVIARQRGDQLVPFSTKSGDTLLLLHHGDFSAEEVFHRELRSNSMKTWGLRAAGWMAMFMGLNLMTRILYTLVDWFPVFRDLVNIGLKAFAFCVATSLTLLTVAAGWLFYRPLWALLIAGLALVPILVARTRVPAKKLE

Target: HA-FRB-P56S-VAPB (human) (UniProt O95292)
Experiment: proximity labelling; RAPIDS as before but with the nuclear reporter FKBP12-cNLS-GFP2-APEX2; Neutravidin beads, quantitative mass spectrometry (label swap) and Western blot

Row | Binder | binding
1 | B1 | no binding
2 | B2 | no binding
3 | B3 | no binding

No constants are given. Whether binding was seen depends on the method and setting. In cells and extracts the contact can be indirect. These calls come from enrichment with a bait or labelling near it, and not all partners need be listed. A no says only that the protein was not detected with the bait.
